Assay results as given in PubChem BioAssay AID445 (National Center for Advancing Translational Sciences (NCATS), 2006).
The list shows a part of the results. Further columns of the screen follow, without active or inactive calls. The list favours compounds with an active or inconclusive main result. Potencies come from curve fits of mixed quality, noted in brackets.

Test: IkB Signaling
Settings: ABC-DLBCL IkBa-CBG/CBR dual luciferase ratio (green luciferase fused to IkBa over red control in OCI-Ly3 lymphoma cells), 4 h
Summary of the method: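 Luminescence ratio of IκBα-fused green versus native red beetle luciferase in OCI-Ly3 cells, 4 h post-doxycycline with compound; red signal alone, scaled from basal (0%) to zero light (-100%), flagged nonspecific or cytotoxic effects.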

[1] = measured here: control luc red channel unless noted
[2] = measured here: IkB-luc green channel
[3] = measured here: control luc red channel

Structure (SMILES): Cn1c(=O)nc2n(-c3ccc(Cl)c(Cl)c3)c3cc(Cl)ccc3cc-2c1=O
- AC50 [1]: 3.98 µM [falling, full curve]

Structure (SMILES): O=C(Nc1c(C(=O)Nc2ccc(F)cc2)oc2ccccc12)c1ccccc1F
- AC50 [1]: 12.6 µM [falling, partial curve]

Structure (SMILES): CC1=C(C(=O)OCC2CCCCC2)C(c2ccccc2F)CC(=O)N1 (centres undefined)
- AC50 [1]: 15.8 µM [falling, partial curve]

Structure (SMILES): Cc1ccc(NC(=O)Cn2c(=O)n(CCCCC(=O)NCCc3ccccc3)c(=O)c3ccccc32)c(C)c1
- AC50 [1]: 25.1 µM [falling, partial curve, poor fit]

Structure (SMILES): COc1cc(NC(=O)Cn2nc(C(F)(F)F)c3c2CCCC3)c(OC)cc1Cl
- AC50 [1]: 25.1 µM [falling, single point]

Structure (SMILES): O=S(=O)(NCCc1csc(-c2cccnc2)n1)c1ccc2c(c1)OCCO2
- AC50 [1]: 0.01 µM [falling, full curve]

Structure (SMILES): COCCNC(=O)c1ccccc1-c1ccccc1C(=O)O
- AC50 [1]: 12.6 µM [falling, partial curve]

Structure (SMILES): COCCNC(=O)CCCn1c(=O)c2cc(OC)c(OC)cc2n(CC(=O)Nc2ccc(F)cc2)c1=O
- AC50 [1]: 10 µM [falling, partial curve]

Structure (SMILES): O=C(CSc1nc(=O)[nH]c2c1CCCC2)Nc1ccccc1C(F)(F)F
- AC50 [1]: 0.794 µM [rising, full curve]

Structure (SMILES): Cc1ccc(NC(=O)C(NS(=O)(=O)c2ccc3c(c2)CCC(=O)N3)c2ccccc2)cc1C (centres undefined)
- AC50 [1]: 3.98 µM [falling, partial curve]

Structure (SMILES): c1ccc2c(-c3ccncc3)c[nH]c2c1
- AC50 [2]: 20 µM [falling, partial curve, poor fit]
- AC50 [3]: 15.8 µM [falling, partial curve]

Structure (SMILES): CCOc1ccc(CNC(=O)c2ccc(-c3nc(CS(=O)(=O)c4ccccc4)c(C)o3)cc2)cc1
- AC50 [1]: 0.0501 µM [falling, full curve, poor fit]

Structure (SMILES): Cc1nn2c(=O)cc(COC(=O)c3cccc(NC(=O)c4cccs4)c3)nc2s1
- AC50 [1]: 2.51 µM [falling, partial curve]

Structure (SMILES): Cc1cccc(N(C)S(=O)(=O)c2cc3c(cc2Cl)NC(=O)CO3)c1
- AC50 [1]: 39.8 µM [falling, single point]

Structure (SMILES): O=C(Nc1cccc(C(F)(F)F)c1)C1CCCN1S(=O)(=O)c1cccc2cccnc12 (centres undefined)
- AC50 [1]: 12.6 µM [falling, partial curve]

Structure (SMILES): Cc1c(Cl)cccc1NC(=O)CSc1nc(=O)n(Cc2ccccn2)c2c1CCC2
- AC50 [1]: 39.8 µM [falling, single point]

Structure (SMILES): COc1ccc(OC)c(C(c2nnnn2CCc2ccccc2)N2CCN(c3ccccc3)CC2)c1 (centres undefined)
- AC50 [2]: 25.1 µM [rising, single point]
- AC50 [3]: 31.6 µM [rising, single point]

Structure (SMILES): Cc1cc(NC(=O)CSc2nc(C3CCCCC3)nc3ccccc23)no1
- AC50 [1]: 3.16 µM [falling, full curve]

Structure (SMILES): CCOC(=O)c1c(NC(=O)c2ccc(S(=O)(=O)N3CCC(C)CC3)cc2)sc2c1CCN(CC)C2
- AC50 [1]: 39.8 µM [falling, single point]

Structure (SMILES): C=Cc1ccc(Cn2nc(-c3ccc(C)cc3)ccc2=O)cc1
- AC50 [1]: 25.1 µM [falling, partial curve]

Structure (SMILES): CCC(=O)N1CCN(c2ccc(NC(=O)c3cc4ccccc4o3)cc2Cl)CC1
- AC50 [1]: 3.16 µM [falling, full curve]

Structure (SMILES): COc1ccc(OC)c(NC(=O)C2CCN(S(=O)(=O)c3ccc4c(c3)CCCC(=O)N4)CC2)c1
- AC50 [1]: 0.02 µM [falling, full curve]

Structure (SMILES): O=C(CN1C(=O)COc2ccc(S(=O)(=O)N3CCCC3)cc21)N1CCN(c2ccc(F)cc2)CC1
- AC50 [1]: 39.8 µM [falling, single point]

Structure (SMILES): Cc1cccc(-n2c(Cc3ccccc3)nnc2SCc2nc(-c3cccs3)no2)c1
- AC50 [1]: 31.6 µM [falling, single point]

Structure (SMILES): Cc1ccc(C(=O)Nc2ccccc2C(=O)NC(CC(=O)O)C(=O)O)cc1 (centres undefined)
- AC50 [2]: 7.94 µM [rising, single point]
- AC50 [3]: 3.98 µM [rising, partial curve]

Structure (SMILES): Cc1cccc(Nc2nnc(-c3ccc(C)c(S(=O)(=O)NCC4CCCO4)c3)c3ccccc23)c1 (centres undefined)
- AC50 [1]: 10 µM [falling, partial curve]

Structure (SMILES): CCOC(=O)c1ccc(N2C(=O)c3n[nH]c(-c4ccco4)c3C2c2ccc(O)c(OCC)c2)cc1 (centres undefined)
- AC50 [1]: 15.8 µM [falling, single point]

Structure (SMILES): CCOc1cccc(C(=O)N2CCC(c3nc4ccccc4s3)CC2)c1
- AC50 [1]: 25.1 µM [falling, single point]

Structure (SMILES): COc1ccc(-c2noc(N(c3cccc(Cl)c3)c3nc(-c4ccc(OC)c(OC)c4)no3)n2)cc1OC
- AC50 [1]: 15.8 µM [rising, partial curve]

Structure (SMILES): Cn1nc(-c2ccccc2F)c2cc(C(=O)NCCc3ccc(Cl)cc3)sc21
- AC50 [1]: 10 µM [falling, partial curve]

Structure (SMILES): CCOc1ccc(-c2nc(SCC(=O)c3ccccc3)n[nH]2)cc1
- AC50 [1]: 2 µM [rising, full curve]

Structure (SMILES): Cc1ccc(S(=O)(=O)Cc2ccc(C(=O)NCCc3ccc(Cl)cc3)o2)cc1
- AC50 [1]: 20 µM [falling, partial curve]

Structure (SMILES): O=C(Nc1ccc(C(F)(F)F)cc1Cl)c1ccc(Cn2cc(Br)cn2)o1
- AC50 [1]: 25.1 µM [falling, partial curve]

Structure (SMILES): COC(=O)C1=C(C)N(c2cccc3ccccc23)C(=O)C1
- AC50 [1]: 12.6 µM [falling, partial curve]

Structure (SMILES): c1ccc(-c2oc3ncnc(NCCCN4CCOCC4)c3c2-c2ccccc2)cc1
- AC50 [1]: 20 µM [falling, partial curve]

Structure (SMILES): COc1cc2[nH]c(=O)n(CCCC(=O)NCc3ccc(Cl)cc3)c(=O)c2cc1OC
- AC50 [1]: 25.1 µM [falling, partial curve, poor fit]

Structure (SMILES): CCc1ccccc1Nc1nn2c(=O)c3ccc(C(=O)NC(C)c4ccccc4)cc3nc2s1 (centres undefined)
- AC50 [1]: 15.8 µM [falling, partial curve]

Structure (SMILES): CN(C)/C=N/c1c(C#N)cnn1-c1ncnc2sc(-c3ccccc3)cc12
- AC50 [1]: 12.6 µM [falling, partial curve]

Structure (SMILES): O=C(CN1CCCN(S(=O)(=O)c2ccc(Br)cc2)CC1)Nc1ccc2cn[nH]c2c1
- AC50 [1]: 12.6 µM [falling, partial curve]

Structure (SMILES): CCOc1cc2[nH]c(=O)n(CCCCC(=O)N3CCN(c4cccc(Cl)c4)CC3)c(=O)c2cc1OCC
- AC50 [1]: 39.8 µM [falling, single point]

Structure (SMILES): Cc1cccc2sc(N(Cc3cccnc3)C(=O)c3cccs3)nc12
- AC50 [1]: 39.8 µM [falling, partial curve]

Structure (SMILES): CCc1ccc(CN2CCc3nc(Nc4ccccc4)ncc3C2)cc1
- AC50 [1]: 20 µM [falling, single point]

Structure (SMILES): c1ccc(Cc2nnc3sc(-c4ccc5c(c4)OCCO5)nn23)cc1
- AC50 [1]: 31.6 µM [falling, single point]

Structure (SMILES): CCOC(=O)c1cc(-c2ccccc2)n(CCCC(=O)Nc2cccc(C)c2C)c1C
- AC50 [1]: 5.01 µM [rising, partial curve]

Structure (SMILES): Cc1nc(-n2nnc3ccccc32)c2c3c(sc2n1)CCCC3
- AC50 [1]: 39.8 µM [falling, single point]

Structure (SMILES): CCOc1ccc(CNC(=O)c2cccc(NC(=O)N3CCSc4ncccc43)c2)cc1
- AC50 [1]: 15.8 µM [falling, partial curve]

Structure (SMILES): CCn1c(C(=O)N2CCC(C(=O)N3CCN(c4cc(C)ccc4C)CC3)CC2)cc2sccc21
- AC50 [1]: 25.1 µM [falling, partial curve]

Structure (SMILES): COc1ccc(CNC(=O)c2ccc3nc(CCc4ccccc4)oc3c2)cc1OC
- AC50 [1]: 2.51 µM [rising, partial curve]

Structure (SMILES): CC(=O)N1CCc2cc(S(=O)(=O)NC(CC(C)C)C(=O)Nc3ccc(C(C)C)cc3)ccc21 (centres undefined)
- AC50 [1]: 31.6 µM [falling, single point]

Structure (SMILES): CCOC(=O)c1c(C)sc(-c2c(-c3ccc4c(c3)OCCO4)[nH]c3c2c(=O)n(C)c(=O)n3C)c1O
- AC50 [1]: 12.6 µM [falling, partial curve]

Structure (SMILES): COc1ccc(C(=O)CSc2nnc(CNc3nc(-c4ccccc4)cs3)n2C)cc1
- AC50 [1]: 10 µM [falling, partial curve]

Structure (SMILES): CCCNC(=O)c1cnn2c(C)c(Cc3c(C)cc(C)cc3C)c(C)nc12
- AC50 [1]: 10 µM [falling, partial curve]

Structure (SMILES): Oc1[nH]c2ccccc2c1C=Nc1ccc2c(c1)OCCO2
- AC50 [1]: 3.98 µM [falling, full curve]

Structure (SMILES): O=C(CC1CCCC1)Nc1nc2ccccc2[nH]1
- AC50 [1]: 12.6 µM [falling, partial curve]

Structure (SMILES): O=C(c1cc2c(s1)CCCC2)N1CCN(Cc2ccc3c(c2)OCO3)CC1
- AC50 [1]: 25.1 µM [falling, partial curve]

Structure (SMILES): COc1ccc(-n2nc3c(N4CCCC(C(=O)NCc5ccc(C)cc5)C4)nnc(C)c3c2C)cc1 (centres undefined)
- AC50 [1]: 20 µM [falling, partial curve]

Structure (SMILES): Cc1sc2ncn(CC(=O)Nc3ccc(F)cc3F)c(=O)c2c1S(=O)(=O)N1CCC(C)CC1
- AC50 [1]: 5.01 µM [falling, full curve]

Structure (SMILES): Cc1c(-c2nnc(SCC(=O)Nc3ccccc3F)o2)nnn1-c1ccc(F)cc1
- AC50 [1]: 20 µM [falling, partial curve]

Structure (SMILES): COc1ccc(CNC(=O)CCc2cn(C)c3ccccc23)cc1
- AC50 [1]: 25.1 µM [falling, single point]

Structure (SMILES): c1ccc2c(c1)CCN(c1nc3ccccc3n3cnnc13)C2
- AC50 [1]: 25.1 µM [falling, single point]

Structure (SMILES): Cc1ccc(CCNC(c2ccc(F)cc2)c2nnc(-c3ccccc3Cl)o2)cc1 (centres undefined)
- AC50 [1]: 31.6 µM [falling, single point]
